From article PMC5327418
Results are given in words; binding and its absence hold for the method and conditions named. In cells and extracts the contact can be indirect. A yes stands for co-enrichment or nearness to the bait. Other partners may have been found.

The chains behind the UniProt entries cited, without tags or fusion partners.
UniProt P32569: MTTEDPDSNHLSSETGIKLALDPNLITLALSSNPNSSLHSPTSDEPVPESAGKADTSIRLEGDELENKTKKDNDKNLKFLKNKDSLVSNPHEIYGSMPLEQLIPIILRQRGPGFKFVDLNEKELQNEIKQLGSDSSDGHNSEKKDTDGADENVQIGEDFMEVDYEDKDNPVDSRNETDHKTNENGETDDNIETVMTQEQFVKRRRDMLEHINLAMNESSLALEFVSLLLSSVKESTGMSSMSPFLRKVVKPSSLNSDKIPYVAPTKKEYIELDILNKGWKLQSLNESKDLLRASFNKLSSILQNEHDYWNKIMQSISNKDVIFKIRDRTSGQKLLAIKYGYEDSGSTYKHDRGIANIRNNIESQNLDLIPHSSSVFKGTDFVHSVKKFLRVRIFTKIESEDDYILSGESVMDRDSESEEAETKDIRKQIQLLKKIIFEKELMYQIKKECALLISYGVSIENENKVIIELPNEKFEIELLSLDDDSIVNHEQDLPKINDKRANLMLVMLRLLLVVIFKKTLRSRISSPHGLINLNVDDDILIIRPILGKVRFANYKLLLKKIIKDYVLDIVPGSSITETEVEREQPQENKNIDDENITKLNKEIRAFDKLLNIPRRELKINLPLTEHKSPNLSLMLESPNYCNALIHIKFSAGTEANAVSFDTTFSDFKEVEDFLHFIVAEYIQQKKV

B1: Tfc1 (protein, UniProt P32367 1-649)
chain: MPVEEPLATLSSIPDSSADQAPPLIADEFTLDLPRIPSLELPLNVSTKHSSIQKAIKMCGGIEKVKEAFKEHGPIESQHGLQLYLNDDTDSDGSKSYFNEHPVIGKRVPFRDESVILKVTMPKGTLSKNNNSVKDSIKSLKDSNKLRVTPVSIVDNTIKFREMSDFQIKLDNVPSAREFKSSFGSLEWNNFKSFVNSVPDNDSQPQENIGNLILDRSVKIPSTDFQLPPPPKLSMVGFPLLYKYKANPFAKKKKNGVTEVKGTYIKNYQLFVHDLSDKTVIPSQAHEQVLYDFEVAKKTKVYPGTKSDSKFYESLEECLKILRELFARRPIWVKRHLDGIVPKKIHHTMKIALALISYRFTMGPWRNTYIKFGIDPRSSVEYAQYQTEYFKIERKLLSSPIVKKNVPKPPPLVFESDTPGGIDSRFKFDGKRIPWYLMLQIDLLIGEPNIAEVFHNVEYLDKANELTGWFKELDLVKIRRIVKYELGCMVQGNYEYNKYKLKYFKTMLFVKESMVPENKNSEEGMGVNTNKDADGDINMDAGSQMSSNAIEEDKGIAAGDDFDDNGAITEEPDDAALENEEMDTDQNLKVPASIDDDVDDVDADEEEQESFDVKTASFQDIINKIAKLDPKTAETMKSELKGFVDEVDL
B2: Tfc3 (protein, UniProt P34111 1-1160)
chain: MVLTIYPDELVQIVSDKIASNKGKITLNQLWDISGKYFDLSDKKVKQFVLSCVILKKDIEVYCDGAITTKNVTDIIGDANHSYSVGITEDSLWTLLTGYTKKESTIGNSAFELLLEVAKSGEKGINTMDLAQVTGQDPRSVTGRIKKINHLLTSSQLIYKGHVVKQLKLKKFSHDGVDSNPYINIRDHLATIVEVVKRSKNGIRQIIDLKRELKFDKEKRLSKAFIAAIAWLDEKEYLKKVLVVSPKNPAIKIRCVKYVKDIPDSKGSPSFEYDSNSADEDSVSDSKAAFEDEDLVEGLDNFNATDLLQNQGLVMEEKEDAVKNEVLLNRFYPLQNQTYDIADKSGLKGISTMDVVNRITGKEFQRAFTKSSEYYLESVDKQKENTGGYRLFRIYDFEGKKKFFRLFTAQNFQKLTNAEDEISVPKGFDELGKSRTDLKTLNEDNFVALNNTVRFTTDSDGQDIFFWHGELKIPPNSKKTPNKNKRKRQVKNSTNASVAGNISNPKRIKLEQHVSTAQEPKSAEDSPSSNGGTVVKGKVVNFGGFSARSLRSLQRQRAILKVMNTIGGVAYLREQFYESVSKYMGSTTTLDKKTVRGDVDLMVESEKLGARTEPVSGRKIIFLPTVGEDAIQRYILKEKDSKKATFTDVIHDTEIYFFDQTEKNRFHRGKKSVERIRKFQNRQKNAKIKASDDAISKKSTSVNVSDGKIKRRDKKVSAGRTTVVVENTKEDKTVYHAGTKDGVQALIRAVVVTKSIKNEIMWDKITKLFPNNSLDNLKKKWTARRVRMGHSGWRAYVDKWKKMLVLAIKSEKISLRDVEELDLIKLLDIWTSFDEKEIKRPLFLYKNYEENRKKFTLVRDDTLTHSGNDLAMSSMIQREISSLKKTYTRKISASTKDLSKSQSDDYIRTVIRSILIESPSTTRNEIEALKNVGNESIDNVIMDMAKEKQIYLHGSKLECTDTLPDILENRGNYKDFGVAFQYRCKVNELLEAGNAIVINQEPSDISSWVLIDLISGELLNMDVIPMVRNVRPLTYTSRRFEIRTLTPPLIIYANSQTKLNTARKSAVKVPLGKPFSRLWVNGSGSIRPNIWKQVVTMVVNEIIFHPGITLSRLQSRCREVLSLHEISEICKWLLERQVLITTDFDGYWVNHNWYSIYEST
B3: Swi1 (protein, UniProt P09547 1-1314)
chain: MDFFNLNNNNNNNNTTTTTTTTNNNNTNNNNTNNNNNPANNTNNNNSTGHSSNTNNNTNNNNTNTGASGVDDFQNFFDPKPFDQNLDSNNNNSNSNNNDNNNSNTVASSTNFTSPTAVVNNAAPANVTGGKAANFIQNQSPQFNSPYDSNNSNTNLNSLSPQAILAKNSIIDSSNLPLQAQQQLYGGNNNNNSTGIANDNVITPHFITNVQSISQNSSSSTPNTNSNSTPNANQQFLPFNNSASNNGNLTSNQLISNYAASNSMDRSSSASNEFVPNTSDNNNNSNNHNMRNNSNNKTSNNNNVTAVPAATPANTNNSTSNANTVFSERAAMFAALQQKQQQRFQALQQQQQQQQNQQQQNQQPQQQQQQQQNPKFLQSQRQQQQRSILQSLNPALQEKISTELNNKQYELFMKSLIENCKKRNMPLQSIPEIGNRKINLFYLYMLVQKFGGADQVTRTQQWSMVAQRLQISDYQQLESIYFRILLPYERHMISQEGIKETQAKRIFLQQFLQELLKKVQQQQQAAALANANNNINSASSAPTPAAPGASVPATAAPGTEAGIVPVSANTPKSLNSNININVNNNNIGQQQVKKPRKQRVKKKTKKELELERKEREDFQKRQQKLLEDQQRQQKLLLETKLRQQYEIELKKLPKVYKRSIVRNYKPLINRLKHYNGYDINYISKIGEKIDSNKPIFLFAPELGAINLHALSMSLQSKNLGEINTALNTLLVTSADSNLKISLVKYPELLDSLAILGMNLLSNLSQNVVPYHRNTSDYYYEDAGSNQYYVTQHDKMVDKIFEKVNNNATLTPNDSNDEKVTILVDSLTGNQLPTPTPTEMEPDLDTECFISMQSTSPAVKQWDLLPEPIRFLPNQFPLKIHRTPYLTSLKKIKDEIDDPFTKINTRGAEDPKVLINDQLSTISMILRNISFSDNNSRIMSRNFYLKRFISDLLWLVLIHPENFTCNRKILNFKKDLVIVLSNISHLLEIASSIDCLLILILVISFGQPKLNPMASSSSFGSESLTFNEFQLQWGKYQTFGVDILAKLFSLEKPNLNYFKSILLNKNTGNNLYDRNSNNNHKDKKLLRRLLNLYNDNNKNNNNRHNLLNDVVSFLFSAIPLQQVLSQSADPSLLIDQFSPVISQSLTSILVIVQKILPLSNEVFEISENNSDSNSNNNGNKDSSFNFNKNLPFVWLSSEENIGSGLLKLSEIILNINNSTSKNTLLQQQNYSKVLLPSINISCVQLIKCLVEKSICFENCLNNDPEILKKIASIPNLFPTDLEIFQLFTNPSVDIQIINQYQLLYNLKNDILTNLE
B4: Gcr1 (protein, UniProt P07261 1-785)
chain: MVCTSTSSNFYSIAQYILQSYFKVNVDSLNSLKLVDLIVDQTYPDSLTLRKLNEGATGQPYDYFNTVSRDADISKCPIFALTIFFVIRWSHPNPPISIENFTTVPLLDSNFISLNSNPLLYIQNQNPNSNSSVKVSRSQTFEPSKELIDLVFPWLSYLKQDMLLIDRTNYKLYSLCELFEFMGRVAIQDLRYLSQHPLLLPNIVTFISKFIPELFQNEEFKGIGSIKNSNNNALNNVTGIETQFLNPSTEEVSQKVDSYFMELSKKLTTENIRLSQEITQLKADMNSVGNVCNQILLLQRQLLSGNQAIGSKSENIVSSTGGGILILDKNSINSNVLSNLVQSIDPNHSKPNGQAQTHQRGPKGQSHAQVQSTNSPALAPINMFPSLSNSIQPMLGTLAPQPQDIVQKRKLPLPGSIASAATGSPFSPSPVGESPYSKRFKLDDKPTPSQTALDSLLTKSISSPRLPLSTLANTAVTESFRSPQQFQHSPDFVVGGSSSSTTENNSKKVNEDSPSSSSKLAERPRLPNNDSTTSMPESPTEVAGDDVDREKPPESSKSEPNDNSPESKDPEKNGKNSNPLGTDADKPVPISNIHNSTEAANSSGTVTKTAPSFPQSSSKFEIINKKDTKAGPNEAIKYKLSRENKTIWDLYAEWYIGLNGKSSIKKLIENYGWRRWKVSEDSHFFPTRRIIMDYIETECDRGIKLGRFTNPQQPREDIRKILVGDLEKFRINNGLTLNSLSLYFRNLTKNNKEICIFENFKNWNVRSMTEEEKLKYCKRRHNTPS
B5: Rsc9 (protein, UniProt Q03124 1-581)
chain: MNSLASNTPLNGTPVSEAPATSSEPVNMFETMVANPIKVSRLQSNGVLTGPAANTKSIHYSLANFNVFQSLPKETARGVDDLTRMEMALLSGIPEEIKWSLKKYLTYSNKAPYMISLRTLPDLLPLFKTFILPLERIVEGLNKSSICDSKAMDSLQMGLNALLILRNLAQDTDSVQILVKDREIKSFILFILKKFQCVATGDNKWQLYEGNATFFNELTHYTLDLMEAISSYIAPAMKDDHYFQTLVSILNYTKDRYMVISILRSLSRLLVRSKANEESAADNLDHKTLSLIVSFLLLECDSELIIASLDFLYQYILPGSQRITELFKSKECSLILEATLPNLLSYNIATPDYHLLQKHKIRLIKRLKPPAPKEPPNLSEDLFQQLFKLNEPLRSTAWLRCCFEPVQEAEFTQISLWRSYESKFGQPVRESGRKLLPAVEFIKNVSNAFNNAAAIVITDPVTGKKRFVIKGIQPRFKALGIADGERESQVPISALKSKFLNDSKEITPARQNSIPEVKFPQELSDVSKVACTFLCLLSNDTDDGAGSAFCQRIRPLVLHKLADIPPLTLALSEYMENTSGL
B6: Rt102 (protein, UniProt P53330 1-157)
chain: MDPQTLITKANKVSYYGNPTSKESWRYDWYQPSKVSSNVQQPQQQLGDMENNLEKYPFRYKTWLRNQEDEKNLQRESCEDILDLKEFDRRILKKSLMTSHTKGDTSKATGAPSANQGDEALSVDDIRGAVGNSEAIPGLSAGVNNDNTKESKDVKMN
B7: Ies1 (protein, UniProt P43579 1-692)
chain: MGKRVYDPIHDTFQLREDNSDETKADSPMQSVKSGSQEEASPSSIQSETETVTTKSIPVIHEIEIDDKNDDDSTQSEEENTNILLNFEPSTVPEATGASTATGPVTTNTVRRKPKESNASKYNRHLKKPDGEPFNRKDIQFSFMQELLMDKRQIFTNVLKPLYKNSIVPINIDGDKLSINVTDKEYDARTFVFNDKLTFAQLYVLTIATSIKCSKILRDKLLLDQQVAFSTCVLALLVNIGRLNTTINFYLEMTSQLRTFHSVPVLQLHANDPKLLQDTPRLKSILKNLPWGNEQLSLMETYKKVDQNDGEVDTVNKFNIINMLFSICDNSGLIDKRFLSKYVEVESKAQEQDMVDEQNEVKETEAENEKQESKAAYATTLFDILDYSKYEPKDRSNILIWLLYIHLETNLSQEEVEESVRFFNGLEDGAPAGKFILRCTERSYDTDPEDELEFGANQRIKRREFMSKMEEGRKRERTNVTEVKKPSIGGDKSEEDGEGEDDKSEETVEETRSLLTPTPILESSSPMTLNRKKVTPQLPKVTPAAPTETEEEITSAAIIDKNDLNLTPLKKYNSSATVNKVDKLISLDLNKHVSENGKTQEEFLADLKKSQVPNRLKRRDIGLIKIFNEFEDIPVASVLGIRGKKRKKFKDNLLGFETDFMKNLGASKKVLLNKIERAEIDDEEATAMFKLE
B8: Arp4 (protein, UniProt P80428 1-489)
chain: MSNAALQVYGGDEVSAVVIDPGSYTTNIGYSGSDFPQSILPSVYGKYTADEGNKKIFSEQSIGIPRKDYELKPIIENGLVIDWDTAQEQWQWALQNELYLNSNSGIPALLTEPVWNSTENRKKSLEVLLEGMQFEACYLAPTSTCVSFAAGRPNCLVVDIGHDTCSVSPIVDGMTLSKSTRRNFIAGKFINHLIKKALEPKEIIPLFAIKQRKPEFIKKTFDYEVDKSLYDYANNRGFFQECKETLCHICPTKTLEETKTELSSTAKRSIESPWNEEIVFDNETRYGFAEELFLPKEDDIPANWPRSNSGVVKTWRNDYVPLKRTKPSGVNKSDKKVTPTEEKEQEAVSKSTSPAANSADTPNETGKRPLEEEKPPKENNELIGLADLVYSSIMSSDVDLRATLAHNVVLTGGTSSIPGLSDRLMTELNKILPSLKFRILTTGHTIERQYQSWLGGSILTSLGTFHQLWVGKKEYEEVGVERLLNDRFR

Target: Med17-HA (S. cerevisiae (endogenous in S288c)) (UniProt P32569)
Test: affinity purification with mass spectrometry; CoIP of Med17-HA on anti-HA magnetic beads from cryoground yeast lysate, 2 h at 4 °C; 20 mM HEPES pH 7.5, 300 mM KOAc, 10% glycerol, 0.01% NP-40, 6 mM MnSO4, 1 mM DTT, Cyanase nuclease; parallel control CoIP from 15N-labelled wild type cells, mixing after purification (MAP); GeLC-MS/MS, three biological replicates

Binder | binding
B1 | binds
B2 | binds
B3 | binds
B4 | binds
B5 | binds
B6 | binds
B7 | binds
B8 | binds
